PubChem BioAssay AID1259308 – NCATS | 2017
Test: 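Candidate targets for better recombinant protein yield in mammalian cells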 (primary screen). Cells: human HEK293 embryonic kidney cells stably expressing firefly luciferase (HEK-CMV-Luc2-Hygro). Reagents: single siRNA against human genes, 0.8 pmol siRNA per well. Timing: 72 h. Detection: 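Luciferase light (ONE-Glo) measured on one replicate plate set and viability (CellTiter-Glo) on the other, scaled to a negative control siRNA, with robust z-scores and luciferase per cell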. Direction: total luciferase, z-score: higher = more reporter protein produced. Call rule: 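Active when the median/MAD z-score for overall luciferase is greater than 3; a gene was taken forward for validation with new siRNAs if at least two of its three siRNAs passed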. Calls: active = raised luciferase; inactive = no rise.
Shown is one part, drawn at random, of about 59,000 reagents tested. Of all reagents, about 1,510 (2.6%) are marked active. 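Calls use total luciferase alone and ignore viability, so some active siRNAs may act by altering cell number.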 Reagents against one gene are numbered here. Further read-outs or replicates are left out here. No sequences are given here.

Against IL3 #1 the deposit lists total luciferase, z-score -0.58; inactive.
IL3 #2 gave total luciferase, z-score 0.29; inactive.
With knock-down of IL3 #3 the results were total luciferase, z-score 0.278; inactive.
HSF1 #1 showed total luciferase, z-score 2.89; inactive.
HSF1 #2 scored total luciferase, z-score -0.634; inactive.
With knock-down of HSF1 #3 the results were total luciferase, z-score 0.854; inactive.
With knock-down of SETD7 #1 the results were total luciferase, z-score 0.459; inactive.
Against SETD7 #2 the deposit lists total luciferase, z-score 0.54; inactive.
Silencing of SETD7 #3 came out at: total luciferase, z-score 0.14; inactive.
FBXO5 #1 showed total luciferase, z-score 1.08; inactive.
After knock-down of FBXO5 #2, the record shows total luciferase, z-score -1.36; inactive.
After knock-down of FBXO5 #3, the record shows total luciferase, z-score -0.112; inactive.
OR5A1 #1 showed total luciferase, z-score 4.01; active.
For OR5A1 #2 the deposit lists total luciferase, z-score 0.621; inactive.
Against OR5A1 #3 the deposit lists total luciferase, z-score 2.27; inactive.

Sorted by “total luciferase, z-score” (high to low): some entries from above.
HSF1 #1: total luciferase, z-score = 2.89; call = inactive
HSF1 #3: total luciferase, z-score = 0.854; call = inactive
SETD7 #2: total luciferase, z-score = 0.54; call = inactive
SETD7 #1: total luciferase, z-score = 0.459; call = inactive
SETD7 #3: total luciferase, z-score = 0.14; call = inactive
HSF1 #2: total luciferase, z-score = -0.634; call = inactive

More entries:
PRKCQ #1 gave total luciferase, z-score 0.56; inactive.
PRKCQ #2 showed total luciferase, z-score -0.558; inactive.
With knock-down of PRKCQ #3, the screen gave total luciferase, z-score 1.13; inactive.
Against SLC6A19 #1 the deposit lists total luciferase, z-score 0.851; inactive.
Knock-down of SLC6A19 #2 resulted in: total luciferase, z-score -0.205; inactive.
SLC6A19 #3 showed total luciferase, z-score -0.485; inactive.
After knock-down of CPLANE2 #1, the screen gave total luciferase, z-score -1.32; inactive.
Silencing of CPLANE2 #2 resulted in: total luciferase, z-score -1.85; inactive.
After knock-down of CPLANE2 #3 the results were total luciferase, z-score 0.644; inactive.
For CACNG1 #1 the deposit lists total luciferase, z-score 0.347; inactive.
CACNG1 #2 showed total luciferase, z-score 1.04; inactive.
For CACNG1 #3, the entry reads total luciferase, z-score -0.132; inactive.
CASP9 #1 gave total luciferase, z-score -0.702; inactive.
CASP9 #2 scored total luciferase, z-score -1.08; inactive.
CASP9 #3 showed total luciferase, z-score -1.54; inactive.
Knock-down of SLC4A3 #1 gave: total luciferase, z-score -0.485; inactive.
For SLC4A3 #2, the values are total luciferase, z-score -1.65; inactive.
Against SLC4A3 #3, the entry reads total luciferase, z-score -0.157; inactive.
